Data published in article doi:10.1101/2023.05.05.539527.
These are yes or no findings as the source states them, for the method shown. Binding seen in cells or lysates may run through a third protein. Some results given as binding are weak or reduced against the parent protein; the word gives no strength. Blank lines part the entries; values can stand above or below the molecule they belong to.

Amino acid sequences for entries named in this document (tags omitted).
UniProt Q15154: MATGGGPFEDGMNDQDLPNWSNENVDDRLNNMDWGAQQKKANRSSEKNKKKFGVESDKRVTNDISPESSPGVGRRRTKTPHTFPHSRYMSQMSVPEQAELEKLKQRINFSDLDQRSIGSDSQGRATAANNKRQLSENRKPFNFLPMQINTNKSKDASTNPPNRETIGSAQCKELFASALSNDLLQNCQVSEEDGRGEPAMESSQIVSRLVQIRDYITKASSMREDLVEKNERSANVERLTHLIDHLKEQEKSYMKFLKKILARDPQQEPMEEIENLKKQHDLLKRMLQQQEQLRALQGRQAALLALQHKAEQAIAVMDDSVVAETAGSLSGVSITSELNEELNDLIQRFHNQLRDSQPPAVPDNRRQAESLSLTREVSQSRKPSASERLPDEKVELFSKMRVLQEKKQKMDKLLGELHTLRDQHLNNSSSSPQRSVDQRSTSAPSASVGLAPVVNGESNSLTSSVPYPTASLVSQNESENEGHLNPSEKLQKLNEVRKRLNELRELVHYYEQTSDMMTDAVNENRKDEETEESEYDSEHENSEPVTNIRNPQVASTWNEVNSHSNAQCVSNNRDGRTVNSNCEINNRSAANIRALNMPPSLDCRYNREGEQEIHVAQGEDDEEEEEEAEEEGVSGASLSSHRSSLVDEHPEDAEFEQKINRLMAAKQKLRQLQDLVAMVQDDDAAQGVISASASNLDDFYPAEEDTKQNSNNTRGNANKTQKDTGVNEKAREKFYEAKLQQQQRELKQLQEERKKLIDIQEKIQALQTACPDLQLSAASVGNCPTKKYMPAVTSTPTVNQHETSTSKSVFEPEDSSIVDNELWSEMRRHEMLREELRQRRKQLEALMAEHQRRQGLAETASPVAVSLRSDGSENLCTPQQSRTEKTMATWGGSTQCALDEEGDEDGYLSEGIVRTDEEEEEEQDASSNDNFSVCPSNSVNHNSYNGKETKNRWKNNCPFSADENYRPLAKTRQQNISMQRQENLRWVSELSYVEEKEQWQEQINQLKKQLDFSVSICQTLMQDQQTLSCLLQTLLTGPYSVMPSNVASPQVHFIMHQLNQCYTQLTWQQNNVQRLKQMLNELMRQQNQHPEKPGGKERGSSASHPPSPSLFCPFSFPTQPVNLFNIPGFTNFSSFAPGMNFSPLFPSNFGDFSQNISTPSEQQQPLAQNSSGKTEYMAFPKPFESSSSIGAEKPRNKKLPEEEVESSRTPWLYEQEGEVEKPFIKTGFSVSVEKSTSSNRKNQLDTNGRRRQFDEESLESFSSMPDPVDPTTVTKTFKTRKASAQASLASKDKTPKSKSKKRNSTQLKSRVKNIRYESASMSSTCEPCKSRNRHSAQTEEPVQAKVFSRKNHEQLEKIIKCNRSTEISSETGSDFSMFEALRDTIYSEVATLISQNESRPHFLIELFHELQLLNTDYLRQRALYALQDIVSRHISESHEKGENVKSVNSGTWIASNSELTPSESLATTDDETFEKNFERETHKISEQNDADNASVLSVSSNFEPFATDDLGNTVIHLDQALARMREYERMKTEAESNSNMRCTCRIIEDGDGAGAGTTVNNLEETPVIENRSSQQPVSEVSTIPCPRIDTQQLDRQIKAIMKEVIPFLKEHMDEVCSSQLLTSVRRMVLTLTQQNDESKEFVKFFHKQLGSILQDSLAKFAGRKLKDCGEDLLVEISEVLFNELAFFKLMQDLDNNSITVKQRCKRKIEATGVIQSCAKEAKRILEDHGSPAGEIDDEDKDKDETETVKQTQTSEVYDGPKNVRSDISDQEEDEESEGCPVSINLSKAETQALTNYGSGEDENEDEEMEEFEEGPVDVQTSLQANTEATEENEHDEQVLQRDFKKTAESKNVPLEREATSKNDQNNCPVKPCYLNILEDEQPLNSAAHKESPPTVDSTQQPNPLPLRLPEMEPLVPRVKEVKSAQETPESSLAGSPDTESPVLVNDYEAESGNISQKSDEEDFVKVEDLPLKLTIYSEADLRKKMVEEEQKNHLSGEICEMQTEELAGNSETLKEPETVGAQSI
UniProt O15078: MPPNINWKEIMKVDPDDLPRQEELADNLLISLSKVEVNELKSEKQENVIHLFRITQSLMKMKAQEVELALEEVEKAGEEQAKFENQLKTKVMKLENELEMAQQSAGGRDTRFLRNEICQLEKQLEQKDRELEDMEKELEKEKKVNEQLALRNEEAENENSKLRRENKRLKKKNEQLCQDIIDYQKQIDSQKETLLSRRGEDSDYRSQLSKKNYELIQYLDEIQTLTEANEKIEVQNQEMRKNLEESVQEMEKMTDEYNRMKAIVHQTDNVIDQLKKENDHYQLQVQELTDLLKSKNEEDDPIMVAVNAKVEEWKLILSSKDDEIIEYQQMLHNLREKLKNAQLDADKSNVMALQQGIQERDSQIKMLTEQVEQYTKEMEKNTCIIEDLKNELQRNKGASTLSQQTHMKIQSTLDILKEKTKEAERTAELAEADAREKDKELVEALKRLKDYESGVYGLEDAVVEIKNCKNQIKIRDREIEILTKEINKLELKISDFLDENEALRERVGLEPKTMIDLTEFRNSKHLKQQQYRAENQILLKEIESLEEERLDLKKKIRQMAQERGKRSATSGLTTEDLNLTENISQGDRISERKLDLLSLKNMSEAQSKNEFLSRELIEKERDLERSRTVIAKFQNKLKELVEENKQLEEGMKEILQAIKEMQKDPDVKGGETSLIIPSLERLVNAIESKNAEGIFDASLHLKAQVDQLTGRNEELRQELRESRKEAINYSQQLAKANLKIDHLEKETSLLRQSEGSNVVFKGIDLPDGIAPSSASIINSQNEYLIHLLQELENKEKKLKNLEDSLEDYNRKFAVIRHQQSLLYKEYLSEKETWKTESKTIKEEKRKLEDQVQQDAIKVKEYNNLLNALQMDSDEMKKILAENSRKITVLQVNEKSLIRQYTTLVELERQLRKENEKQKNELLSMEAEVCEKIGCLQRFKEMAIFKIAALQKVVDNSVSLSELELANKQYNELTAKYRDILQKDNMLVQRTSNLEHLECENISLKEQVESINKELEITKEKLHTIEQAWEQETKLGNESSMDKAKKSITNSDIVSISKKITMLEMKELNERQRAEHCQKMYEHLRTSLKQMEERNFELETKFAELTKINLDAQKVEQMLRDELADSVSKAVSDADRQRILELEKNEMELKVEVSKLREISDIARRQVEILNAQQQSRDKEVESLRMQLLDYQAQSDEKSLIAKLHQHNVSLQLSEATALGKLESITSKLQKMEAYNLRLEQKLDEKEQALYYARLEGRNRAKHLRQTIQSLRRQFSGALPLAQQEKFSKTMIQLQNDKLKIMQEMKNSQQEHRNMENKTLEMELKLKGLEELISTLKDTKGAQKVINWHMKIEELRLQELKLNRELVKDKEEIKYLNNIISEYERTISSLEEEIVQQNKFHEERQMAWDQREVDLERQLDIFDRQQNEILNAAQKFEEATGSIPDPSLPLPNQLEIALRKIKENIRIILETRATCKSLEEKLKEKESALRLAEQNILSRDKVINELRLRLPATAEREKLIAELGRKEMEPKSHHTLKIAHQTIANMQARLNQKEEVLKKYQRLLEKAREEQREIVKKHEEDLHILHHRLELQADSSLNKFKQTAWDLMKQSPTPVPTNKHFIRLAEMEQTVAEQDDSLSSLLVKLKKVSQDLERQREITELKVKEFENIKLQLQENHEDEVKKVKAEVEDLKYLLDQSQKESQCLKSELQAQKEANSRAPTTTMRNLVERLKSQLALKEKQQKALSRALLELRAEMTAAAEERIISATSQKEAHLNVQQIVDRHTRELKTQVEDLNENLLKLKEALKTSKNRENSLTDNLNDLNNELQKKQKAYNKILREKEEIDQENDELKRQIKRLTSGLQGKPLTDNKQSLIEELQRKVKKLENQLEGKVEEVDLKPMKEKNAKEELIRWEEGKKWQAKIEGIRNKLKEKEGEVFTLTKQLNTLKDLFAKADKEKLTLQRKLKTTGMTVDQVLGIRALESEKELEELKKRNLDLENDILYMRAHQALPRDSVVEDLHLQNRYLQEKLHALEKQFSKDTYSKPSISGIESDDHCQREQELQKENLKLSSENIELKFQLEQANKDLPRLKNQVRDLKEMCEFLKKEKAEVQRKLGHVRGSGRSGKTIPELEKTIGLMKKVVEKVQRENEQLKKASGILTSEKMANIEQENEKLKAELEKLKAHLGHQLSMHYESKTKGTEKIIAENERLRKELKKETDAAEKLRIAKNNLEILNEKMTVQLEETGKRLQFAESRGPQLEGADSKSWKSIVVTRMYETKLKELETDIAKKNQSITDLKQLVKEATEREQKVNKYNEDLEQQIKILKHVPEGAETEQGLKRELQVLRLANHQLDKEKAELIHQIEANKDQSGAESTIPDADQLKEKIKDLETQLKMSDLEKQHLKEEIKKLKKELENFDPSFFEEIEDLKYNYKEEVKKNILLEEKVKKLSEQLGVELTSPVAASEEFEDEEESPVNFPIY

Biological target: Pericentriolar Material 1 (PCM1) protein (human (endogenous in Jurkat)) (UniProt Q15154)
Test: co-IP

binding: binds
Molecule: CEP290 (from UniProt O15078 1-2479)

binding: binds
B1: CEP131 (protein, UniProt Q9UPN4 1-1083)
chain: MKGTRAIGSVPERSPAGVDLSLTGLPPPVSRRPGSAATTKPIVRSVSVVTGSEQKRKVLEATGPGGSQAINNLRRSNSTTQVSQPRSGSPRPTEPTDFLMLFEGSPSGKKRPASLSTAPSEKGATWNVLDDQPRGFTLPSNARSSSALDSPAGPRRKECTVALAPNFTANNRSNKGAVGNCVTTMVHNRYTPSERAPPLKSSNQTAPSLNNIIKAATCEGSESSGFGKLPKNVSSATHSARNNTGGSTGLPRRKEVTEEEAERFIHQVNQATVTIQRWYRHQVQRRGAGAARLEHLLQAKREEQRQRSGEGTLLDLHQQKEAARRKAREEKARQARRAAIQELQQKRALRAQKASTAERGPPENPRETRVPGMRQPAQELSPTPGGTAHQALKANNTGGGLPAAGPGDRCLPTSDSSPEPQQPPEDRTQDVLAQDAAGDNLEMMAPSRGSAKSRGPLEELLHTLQLLEKEPDVLPRPRTHHRGRYAWASEVTTEDDASSLTADNLEKFGKLSAFPEPPEDGTLLSEAKLQSIMSFLDEMEKSGQDQLDSQQEGWVPEAGPGPLELGSEVSTSVMRLKLEVEEKKQAMLLLQRALAQQRDLTARRVKETEKALSRQLQRQREHYEATIQRHLAFIDQLIEDKKVLSEKCEAVVAELKQEDQRCTERVAQAQAQHELEIKKLKELMSATEKARREKWISEKTKKIKEVTVRGLEPEIQKLIARHKQEVRRLKSLHEAELLQSDERASQRCLRQAEELREQLEREKEALGQQERERARQRFQQHLEQEQWALQQQRQRLYSEVAEERERLGQQAARQRAELEELRQQLEESSSALTRALRAEFEKGREEQERRHQMELNTLKQQLELERQAWEAGRTRKEEAWLLNREQELREEIRKGRDKEIELVIHRLEADMALAKEESEKAAESRIKRLRDKYEAELSELEQSERKLQERCSELKGQLGEAEGENLRLQGLVRQKERALEDAQAVNEQLSSERSNLAQVIRQEFEDRLAASEEETRQAKAELATLQARQQLELEEVHRRVKTALARKEEAVSSLRTQHEAAVKRADHLEELLEQHRRPTPSTK
